# The other results are listed elsewhere or left out.
# Tests used:
# Experiment in all cases: glycan array binding signal (z-score within array); higher = stronger binding
# Conditions in all cases: glycan notation: IUPAC condensed, linker removed
# [1] = target: Gal(b1-4)GlcNAc(b1-2)Man(a1-3)[Gal(b1-4)GlcNAc(b1-2)Man(a1-6)]Man(b1-4)GlcNAc(b1-4)GlcNAc
# Summary of the method: (§1)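 Glycan array data came from 3228 arrays in the Consortium for Functional Glycomics database, and only arrays with an available protein sequence were kept. Glycan names were put into IUPAC-condensed notation, and columns mapping to the same glycan were averaged. The binding signal is a within-array Z-score, averaged across arrays of one protein sequence run at different concentrations or buffers and across linkers. A negative Z-score can be read as non-binding.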
# [2] = target: Gal(b1-4)GlcNAc(b1-2)Man(a1-3)[Gal(b1-4)GlcNAc(b1-2)Man(a1-6)]Man(b1-4)GlcNAc(b1-4)[Fuc(a1-6)]GlcNAc
# Summary of the method: as §1
# [3] = target: Gal(b1-4)GlcNAc(b1-2)Man(a1-3)[Gal(b1-4)GlcNAc(b1-2)Man(a1-6)][Gal(b1-4)GlcNAc(b1-4)]Man(b1-4)GlcNAc(b1-4)[Fuc(a1-6)]GlcNAc
# Summary of the method: as §1
# [4] = target: Gal(b1-4)GlcNAc(b1-2)Man(a1-3)[Gal(b1-4)GlcNAc(b1-2)Man(a1-6)][GlcNAc(b1-4)]Man(b1-4)GlcNAc(b1-4)[Fuc(a1-6)]GlcNAc
# Summary of the method: as §1
# [5] = target: Gal(b1-4)GlcNAc(b1-2)Man(a1-3)[GlcNAc(b1-2)Man(a1-6)]Man(b1-4)GlcNAc(b1-4)GlcNAc
# Summary of the method: as §1
# [6] = target: Gal(b1-4)GlcNAc(b1-2)Man(a1-3)[GlcNAc(b1-4)][Gal(b1-4)GlcNAc(b1-2)Man(a1-6)]Man(b1-4)GlcNAc(b1-4)GlcNAc
# Summary of the method: as §1
# [7] = target: Gal(b1-4)GlcNAc(b1-2)Man(a1-3)[Man(a1-6)]Man(b1-4)GlcNAc(b1-4)GlcNAc
# Summary of the method: as §1
# [8] = target: Gal(b1-4)GlcNAc(b1-2)Man(a1-6)Man(b1-4)GlcNAc(b1-4)GlcNAc
# Summary of the method: as §1
# [9] = target: Gal(b1-4)GlcNAc(b1-2)Man(a1-6)[GlcNAc(b1-2)Man(a1-3)]Man(b1-4)GlcNAc(b1-4)GlcNAc
# Summary of the method: as §1
# [10] = target: Gal(b1-4)GlcNAc(b1-2)Man(a1-6)[Man(a1-3)]Man(b1-4)GlcNAc(b1-4)GlcNAc
# Summary of the method: as §1
# [11] = target: Gal(b1-4)GlcNAc(b1-2)[Gal(b1-4)GlcNAc(b1-4)]Man(a1-3)[Gal(b1-4)GlcNAc(b1-2)Man(a1-6)]Man(b1-4)GlcNAc(b1-4)GlcNAc
# Summary of the method: as §1
# [12] = target: Gal(b1-4)GlcNAc(b1-2)[Gal(b1-4)GlcNAc(b1-4)]Man(a1-3)[Gal(b1-4)GlcNAc(b1-2)[Gal(b1-4)GlcNAc(b1-6)]Man(a1-6)]Man(b1-4)GlcNAc(b1-4)GlcNAc
# Summary of the method: as §1
# [13] = target: Gal(b1-4)GlcNAc(b1-2)[Gal(b1-4)GlcNAc(b1-4)]Man(a1-3)[GlcNAc(b1-4)][Gal(b1-4)GlcNAc(b1-2)Man(a1-6)]Man(b1-4)GlcNAc(b1-4)GlcNAc
# Summary of the method: as §1
# [14] = target: Gal(b1-4)GlcNAc(b1-2)[Gal(b1-4)GlcNAc(b1-4)]Man(a1-3)[GlcNAc(b1-4)][Gal(b1-4)GlcNAc(b1-2)[Gal(b1-4)GlcNAc(b1-6)]Man(a1-6)]Man(b1-4)GlcNAc(b1-4)GlcNAc
# Summary of the method: as §1
# [15] = target: Gal(b1-4)GlcNAc(b1-2)[Gal(b1-4)GlcNAc(b1-6)]Man(a1-6)[Gal(b1-4)GlcNAc(b1-2)Man(a1-3)]Man(b1-4)GlcNAc(b1-4)GlcNAc
# Summary of the method: as §1
# [16] = target: Gal(b1-4)GlcNAc(b1-2)[Gal(b1-4)GlcNAc(b1-6)]Man(a1-6)[Gal(b1-4)GlcNAc(b1-2)Man(a1-3)]Man(b1-4)GlcNAc(b1-4)[Fuc(a1-6)]GlcNAc
# Summary of the method: as §1
# [17] = target: Gal(b1-4)GlcNAc(b1-2)[Gal(b1-4)GlcNAc(b1-6)]Man(a1-6)[GlcNAc(b1-4)][Gal(b1-4)GlcNAc(b1-2)Man(a1-3)]Man(b1-4)GlcNAc(b1-4)GlcNAc
# Summary of the method: as §1
# [18] = target: Gal(b1-4)GlcNAc(b1-2)[Gal(b1-4)GlcNAc(b1-6)]Man(a1-6)[GlcNAc(b1-4)][Gal(b1-4)GlcNAc(b1-2)[Gal(b1-4)GlcNAc(b1-4)]Man(a1-3)]Man(b1-4)GlcNAc(b1-4)[Fuc(a1-6)]GlcNAc
# Summary of the method: as §1
# [19] = target: Gal(b1-4)GlcNAc(b1-3)Gal(b1-3)GalNAc
# Summary of the method: as §1
binder,measurement,setting,value
LlpA (Arthrobacter sp) (protein) MGSSHHHHHHSSGLVPRGSHMTLHPETALRPGAAATSPNSRYRLLYQTDGNLVLYGPDGPLWDSGTNGHGAGACIMQADGNLVLYGPNDEYVWDTETDNNPGSRLVIQDDGNAVIYRPDGSPLWATETCQPPGSADSHVLQSGSTLTPTHGIRSANGLYGLLYQTDGNLVFYGPDGPLWDSGTNGRGAGACIMQPDGNLVLYGPHDEYVWDTETDNNPGSRLVIQDDGNAVIYRPDGNPTWVTGTH,glycan array binding signal (z-score),[1],-0.345
same,glycan array binding signal (z-score),[2],1.04
same,glycan array binding signal (z-score),[3],-1.07
same,glycan array binding signal (z-score),[4],-1.19
same,glycan array binding signal (z-score),[5],-1.68
same,glycan array binding signal (z-score),[6],-1.42
same,glycan array binding signal (z-score),[7],-0.891
same,glycan array binding signal (z-score),[8],0.43
same,glycan array binding signal (z-score),[9],0.012
same,glycan array binding signal (z-score),[10],-0.103
same,glycan array binding signal (z-score),[11],0.278
same,glycan array binding signal (z-score),[12],-0.351
same,glycan array binding signal (z-score),[13],-0.339
same,glycan array binding signal (z-score),[14],-0.801
same,glycan array binding signal (z-score),[15],-0.781
same,glycan array binding signal (z-score),[16],-0.209
same,glycan array binding signal (z-score),[17],-0.796
same,glycan array binding signal (z-score),[18],0.196
same,glycan array binding signal (z-score),[19],-0.526

# A second format for some results above.
binder	measurement	setting	value
LlpA (Arthrobacter sp) (protein) MGSSHHHHHHSSGLVPRGSHMTLHPETALRPGAAATSPNSRYRLLYQTDGNLVLYGPDGPLWDSGTNGHGAGACIMQADGNLVLYGPNDEYVWDTETDNNPGSRLVIQDDGNAVIYRPDGSPLWATETCQPPGSADSHVLQSGSTLTPTHGIRSANGLYGLLYQTDGNLVFYGPDGPLWDSGTNGRGAGACIMQPDGNLVLYGPHDEYVWDTETDNNPGSRLVIQDDGNAVIYRPDGNPTWVTGTH	glycan array binding signal (z-score)	[4]	-1.19
same	glycan array binding signal (z-score)	[5]	-1.68
same	glycan array binding signal (z-score)	[6]	-1.42
same	glycan array binding signal (z-score)	[7]	-0.891

# From the supplement of paper PMC8728848
